Experimental data from article PMC9668969 (Nature Communications, 2022).
Results are given in words; binding and its absence hold for the method and conditions named. Some binding calls cover weakened binding; strength is not graded here.

Protein sequences, listed by entry. Tags and fused reporters are not part of them.
UniProt P0C7B7: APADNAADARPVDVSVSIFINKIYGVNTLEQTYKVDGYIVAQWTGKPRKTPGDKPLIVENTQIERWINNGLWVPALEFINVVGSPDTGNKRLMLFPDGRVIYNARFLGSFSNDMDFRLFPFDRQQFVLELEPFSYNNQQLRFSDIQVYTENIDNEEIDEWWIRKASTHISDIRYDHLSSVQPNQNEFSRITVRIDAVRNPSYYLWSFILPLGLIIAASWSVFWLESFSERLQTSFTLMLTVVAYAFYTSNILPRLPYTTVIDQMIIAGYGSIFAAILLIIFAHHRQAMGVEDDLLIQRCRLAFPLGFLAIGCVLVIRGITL

Molecular target: Erwinia chrysanthemi ligand-gated ion channel (ELIC), wild type (Erwinia chrysanthemi) (UniProt P0C7B7)
Test: cryo-EM structure; single particle cryo-EM of purified ELIC in MSP1E3D1 nanodiscs (2:1:1 POPC:POPE:POPG or POPC), apo or with 10 mM cysteamine; 10 mM HEPES, 100 mM NaCl, pH 7.5; C5 symmetry used in 3D classification; homopentamer; both purified

Erwinia chrysanthemi ligand-gated ion channel (ELIC), wild type (from UniProt P0C7B7 1-321)
binding: binds
